No constants are given. Whether binding was seen depends on the method and setting. Binding seen in cells or lysates may run through a third protein. Some binding calls cover weakened binding; strength is not graded here.
Experiments:
[1] = molecular target: FLAG-hnRNP UL1, stably expressed (HEK UL1 OE cells) (human) (UniProt Q9BUJ2); assay: co-IP; magnetic beads conjugated with anti-FLAG antibodies; 250 ug protein extract of NO and CN fractions of HEK UL1 OE cells; overnight at 4 C; washes in PBS-T and lysis buffer (50 mM Tris pH 7.8, 150 mM NaCl, 0.1% NP40); HEK WT extract as negative control; western blot
[2] = molecular target: hnRNP UL1 (heterogeneous nuclear ribonucleoprotein U-like protein 1), endogenous (human (endogenous in HEK293)) (UniProt Q9BUJ2); assay: co-IP; anti-hnRNP UL1 antibodies on Dynabeads Protein G; 250 ug protein extract of NO and CN fractions of HEK WT cells; 1.5 h at 4 C; washes in PBS with 0.02% Tween 20; beads without antibody as negative control; western blot

By UniProt entry, the sequences of proteins in these tests, tags left out.
UniProt Q9BUJ2: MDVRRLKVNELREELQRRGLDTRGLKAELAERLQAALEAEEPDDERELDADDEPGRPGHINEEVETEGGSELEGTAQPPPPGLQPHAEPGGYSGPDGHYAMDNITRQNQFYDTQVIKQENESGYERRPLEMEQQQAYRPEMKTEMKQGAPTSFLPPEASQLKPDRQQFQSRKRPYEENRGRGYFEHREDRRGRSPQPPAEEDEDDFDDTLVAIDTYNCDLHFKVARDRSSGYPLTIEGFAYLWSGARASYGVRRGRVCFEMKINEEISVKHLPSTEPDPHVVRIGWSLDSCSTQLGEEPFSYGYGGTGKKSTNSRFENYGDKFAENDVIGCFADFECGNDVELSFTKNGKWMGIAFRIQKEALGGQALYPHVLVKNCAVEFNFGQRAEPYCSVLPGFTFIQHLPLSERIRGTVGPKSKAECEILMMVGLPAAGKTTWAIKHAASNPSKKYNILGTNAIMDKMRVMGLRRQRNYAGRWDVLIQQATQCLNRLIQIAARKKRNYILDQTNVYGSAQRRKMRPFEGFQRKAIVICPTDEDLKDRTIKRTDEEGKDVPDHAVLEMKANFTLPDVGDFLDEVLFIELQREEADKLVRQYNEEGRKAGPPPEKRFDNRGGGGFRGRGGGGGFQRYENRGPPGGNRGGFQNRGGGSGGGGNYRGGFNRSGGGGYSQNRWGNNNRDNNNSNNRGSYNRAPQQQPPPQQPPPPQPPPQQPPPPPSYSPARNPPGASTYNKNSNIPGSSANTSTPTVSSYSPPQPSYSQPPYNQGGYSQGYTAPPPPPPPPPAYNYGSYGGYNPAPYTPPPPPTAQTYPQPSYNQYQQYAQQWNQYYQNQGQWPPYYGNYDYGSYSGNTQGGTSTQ
UniProt Q12888: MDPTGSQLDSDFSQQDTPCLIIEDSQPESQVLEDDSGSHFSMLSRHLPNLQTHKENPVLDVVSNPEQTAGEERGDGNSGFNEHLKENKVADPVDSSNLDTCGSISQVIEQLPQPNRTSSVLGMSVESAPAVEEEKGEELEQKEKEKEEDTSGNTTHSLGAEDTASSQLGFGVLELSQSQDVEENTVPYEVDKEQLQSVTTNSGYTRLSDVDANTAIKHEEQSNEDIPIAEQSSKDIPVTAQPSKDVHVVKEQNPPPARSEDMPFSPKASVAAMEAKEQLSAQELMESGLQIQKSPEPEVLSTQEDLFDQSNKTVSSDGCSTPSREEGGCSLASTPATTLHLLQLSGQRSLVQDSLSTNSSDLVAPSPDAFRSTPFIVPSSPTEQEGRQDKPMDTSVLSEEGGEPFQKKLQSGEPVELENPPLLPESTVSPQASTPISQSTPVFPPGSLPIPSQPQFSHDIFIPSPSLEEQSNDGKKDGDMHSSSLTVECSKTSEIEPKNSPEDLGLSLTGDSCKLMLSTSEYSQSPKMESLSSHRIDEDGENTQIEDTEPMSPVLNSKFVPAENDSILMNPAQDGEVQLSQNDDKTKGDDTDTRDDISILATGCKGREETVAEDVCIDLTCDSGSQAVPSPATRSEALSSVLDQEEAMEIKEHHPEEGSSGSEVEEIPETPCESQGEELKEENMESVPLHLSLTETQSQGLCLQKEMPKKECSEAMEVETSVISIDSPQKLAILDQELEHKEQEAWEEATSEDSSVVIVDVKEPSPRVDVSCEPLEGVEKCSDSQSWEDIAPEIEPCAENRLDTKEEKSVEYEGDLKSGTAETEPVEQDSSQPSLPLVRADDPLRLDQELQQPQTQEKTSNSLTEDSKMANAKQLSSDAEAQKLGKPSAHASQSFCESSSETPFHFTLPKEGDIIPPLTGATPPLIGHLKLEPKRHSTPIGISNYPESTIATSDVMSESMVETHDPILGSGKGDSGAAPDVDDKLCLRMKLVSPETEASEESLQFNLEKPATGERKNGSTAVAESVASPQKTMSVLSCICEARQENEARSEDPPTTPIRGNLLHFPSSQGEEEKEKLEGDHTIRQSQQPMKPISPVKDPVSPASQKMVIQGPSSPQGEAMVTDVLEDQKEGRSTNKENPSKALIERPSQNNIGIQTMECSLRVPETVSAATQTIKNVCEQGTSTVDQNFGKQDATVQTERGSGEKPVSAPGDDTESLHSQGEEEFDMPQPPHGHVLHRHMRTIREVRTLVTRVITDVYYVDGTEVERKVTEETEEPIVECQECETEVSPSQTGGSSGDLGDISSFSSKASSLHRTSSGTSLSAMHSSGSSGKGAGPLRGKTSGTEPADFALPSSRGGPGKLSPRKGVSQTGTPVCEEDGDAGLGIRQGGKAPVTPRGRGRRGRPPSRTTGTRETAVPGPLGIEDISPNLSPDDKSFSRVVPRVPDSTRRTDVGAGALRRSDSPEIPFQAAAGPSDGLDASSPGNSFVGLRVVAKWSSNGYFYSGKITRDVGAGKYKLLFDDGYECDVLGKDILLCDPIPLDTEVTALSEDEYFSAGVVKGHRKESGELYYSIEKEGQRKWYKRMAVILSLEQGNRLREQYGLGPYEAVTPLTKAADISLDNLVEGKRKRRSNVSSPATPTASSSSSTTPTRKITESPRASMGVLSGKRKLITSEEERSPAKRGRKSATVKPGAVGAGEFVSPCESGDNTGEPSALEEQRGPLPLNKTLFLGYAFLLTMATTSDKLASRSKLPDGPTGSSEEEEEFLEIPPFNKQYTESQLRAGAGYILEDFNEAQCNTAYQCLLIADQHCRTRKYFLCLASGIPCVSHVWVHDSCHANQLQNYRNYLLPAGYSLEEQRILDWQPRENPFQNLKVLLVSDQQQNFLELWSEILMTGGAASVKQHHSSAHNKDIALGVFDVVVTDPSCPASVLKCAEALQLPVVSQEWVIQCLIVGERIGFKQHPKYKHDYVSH
UniProt Q92878: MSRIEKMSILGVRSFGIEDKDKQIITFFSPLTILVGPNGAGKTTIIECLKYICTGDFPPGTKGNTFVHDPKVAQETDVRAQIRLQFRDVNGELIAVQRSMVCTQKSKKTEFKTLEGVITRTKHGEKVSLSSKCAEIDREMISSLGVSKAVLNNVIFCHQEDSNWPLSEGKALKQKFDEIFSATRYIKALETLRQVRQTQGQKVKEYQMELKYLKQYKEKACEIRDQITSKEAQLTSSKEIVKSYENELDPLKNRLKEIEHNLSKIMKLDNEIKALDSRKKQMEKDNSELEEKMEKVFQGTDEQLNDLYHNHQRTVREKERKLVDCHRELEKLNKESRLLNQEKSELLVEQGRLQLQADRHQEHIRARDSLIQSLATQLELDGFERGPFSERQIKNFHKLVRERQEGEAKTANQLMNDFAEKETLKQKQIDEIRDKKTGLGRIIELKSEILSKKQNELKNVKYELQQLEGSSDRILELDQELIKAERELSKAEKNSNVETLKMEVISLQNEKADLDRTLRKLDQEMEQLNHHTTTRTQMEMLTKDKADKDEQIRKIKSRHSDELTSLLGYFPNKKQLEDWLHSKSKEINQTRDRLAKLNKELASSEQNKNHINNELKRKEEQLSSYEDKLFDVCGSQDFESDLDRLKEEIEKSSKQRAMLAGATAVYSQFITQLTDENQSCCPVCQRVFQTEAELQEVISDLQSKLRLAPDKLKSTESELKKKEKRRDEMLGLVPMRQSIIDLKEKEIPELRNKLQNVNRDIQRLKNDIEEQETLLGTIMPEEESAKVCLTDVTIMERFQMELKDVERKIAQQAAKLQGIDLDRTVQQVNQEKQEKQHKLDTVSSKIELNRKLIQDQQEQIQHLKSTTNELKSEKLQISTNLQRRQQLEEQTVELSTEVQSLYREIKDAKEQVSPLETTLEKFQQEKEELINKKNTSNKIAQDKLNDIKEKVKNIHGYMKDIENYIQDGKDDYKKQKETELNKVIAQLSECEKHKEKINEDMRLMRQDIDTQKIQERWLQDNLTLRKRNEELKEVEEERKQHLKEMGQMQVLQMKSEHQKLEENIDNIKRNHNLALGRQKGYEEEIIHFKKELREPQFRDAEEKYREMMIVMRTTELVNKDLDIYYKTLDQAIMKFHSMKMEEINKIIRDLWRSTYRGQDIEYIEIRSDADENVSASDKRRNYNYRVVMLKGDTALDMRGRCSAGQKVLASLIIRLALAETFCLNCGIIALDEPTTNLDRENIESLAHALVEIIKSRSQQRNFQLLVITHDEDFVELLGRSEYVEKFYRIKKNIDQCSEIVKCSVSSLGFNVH
UniProt P18887: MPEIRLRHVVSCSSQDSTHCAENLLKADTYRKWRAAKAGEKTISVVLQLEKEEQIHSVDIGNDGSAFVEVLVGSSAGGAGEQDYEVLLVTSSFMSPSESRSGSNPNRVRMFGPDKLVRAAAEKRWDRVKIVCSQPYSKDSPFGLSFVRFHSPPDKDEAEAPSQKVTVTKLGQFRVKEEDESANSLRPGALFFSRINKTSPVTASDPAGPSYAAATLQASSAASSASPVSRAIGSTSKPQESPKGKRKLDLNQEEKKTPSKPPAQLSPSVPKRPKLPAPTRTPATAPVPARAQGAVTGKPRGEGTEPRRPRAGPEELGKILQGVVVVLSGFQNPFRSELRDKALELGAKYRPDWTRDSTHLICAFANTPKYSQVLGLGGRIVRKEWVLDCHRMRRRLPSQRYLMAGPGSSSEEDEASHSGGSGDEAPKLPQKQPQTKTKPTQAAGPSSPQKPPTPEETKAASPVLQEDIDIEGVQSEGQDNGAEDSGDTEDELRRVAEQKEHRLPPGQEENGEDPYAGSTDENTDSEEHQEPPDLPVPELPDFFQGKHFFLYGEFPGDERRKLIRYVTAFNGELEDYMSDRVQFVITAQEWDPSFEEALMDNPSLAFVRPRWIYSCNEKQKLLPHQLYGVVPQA
UniProt P15927: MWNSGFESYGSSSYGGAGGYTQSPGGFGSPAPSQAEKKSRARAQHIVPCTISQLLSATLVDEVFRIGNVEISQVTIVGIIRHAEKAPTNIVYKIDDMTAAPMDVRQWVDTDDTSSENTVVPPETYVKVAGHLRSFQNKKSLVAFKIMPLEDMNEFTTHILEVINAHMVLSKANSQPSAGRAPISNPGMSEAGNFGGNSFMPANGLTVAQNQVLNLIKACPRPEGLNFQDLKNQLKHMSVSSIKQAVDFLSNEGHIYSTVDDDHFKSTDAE

Row | binding [1] | binding [2] | Substance
1 | no binding | – | 53BP1 (from UniProt Q12888 1-1972)
2 | no binding | – | RAD50 (from UniProt Q92878 1-1312)
3 | binds weakly | – | X-ray repair cross-complementing protein 1 (XRCC1) (from UniProt P18887 1-633)
4 | – | binds | replication protein A 32 kDa subunit (RPA32), detected as pRPA32 (from UniProt P15927 1-270)

From publication PMC9379416
